PubChem BioAssay AID602196 | INSERM – 2012
The whole screen tested about 23,000 reagents; this is an unselected part. 455 of them (2%) count as active. 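Active includes both protection and sensitisation; some change values fall well beyond the stated -50 to +50 range.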 Reagents against one gene are numbered here. Reagent sequences are not shown. Not stated in the record: the amount of reagent.

Aim: 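Modifiers of cisplatin sensitivity in A549 cells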
System: human A549 lung cancer cells
Reagent: siRNA pair against human genes
Time to read-out: 48 h transfection before cisplatin; time from cisplatin to read-out not stated
Treatment: cisplatin at a dose killing half of control-siRNA cells; exact dose and duration not given
Measured: 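Shift in cisplatin death relative to control siRNA, from -50 (all cells die) to +50 (no cells die); siRNAs harmful on their own scored 0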
Scale: two-siRNA summed score (-2 to +2): higher = both siRNAs protect from cisplatin killing; -2 means both sensitise; mean protection from cisplatin (shift in death) and protection from cisplatin (shift in death), siRNA C and protection from cisplatin (shift in death), siRNA D: higher = protection from cisplatin killing
Call rule: 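Each siRNA scores 0 if harmful alone by LDH or WST-1, otherwise +1 if it reduces and -1 if it increases cisplatin killing; a gene is active when both siRNAs agree (sum +2 or -2)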
Calls: active = both siRNAs shift cisplatin killing the same way; inactive = no consistent shift, or siRNA harmful alone

no.	gene symbol	reagent	two-siRNA summed score (-2 to +2)	mean protection from cisplatin (shift in death) (%)	protection from cisplatin (shift in death), siRNA C (%)	protection from cisplatin (shift in death), siRNA D (%)	outcome
1	SNX3	1	0	12.1	14.7	9.4	inactive
2	EBP	1	-1	-21.9	-9.7	-34.1	inactive
3	LOC389358	1	0	-5.5	-1.7	-9.4	inactive
4	LOC145846	1	1	13.5	2.5	24.4	inactive
5	NDUFA2	1	0	-11.1	2.4	-24.6	inactive
6	FLT4	1	0	23.5	41.9	5.1	inactive
7	SHTN1	1	0	0.1	12.6	-12.4	inactive
8	SLC22A20P	1	1	15.1	6.4	23.7	inactive
9	CNMD	1	0	-3.2	4.5	-11	inactive
10	OPTN	1	0	-5.4	-0.1	-10.6	inactive
11	IFNA17	1	0	2.2	-4.3	8.7	inactive
12	H2BC5	1	0	3.7	0.3	7.1	inactive
13	LOC442661	1	0	26.4	40.4	12.5	inactive
14	LOC285703	1	1	7.1	-4.7	19	inactive
15	KCND3	1	0	0.5	9.3	-8.3	inactive
16	LOC149157	1	0	14.3	5	23.6	inactive
17	LOC388550	1	1	7.4	16.2	-1.5	inactive
18	LOC440824	1	0	14.3	28.6	0	inactive
19	LOC344787	1	0	0.3	-1.7	2.2	inactive
20	CPLANE1	1	0	4.6	9.5	-0.3	inactive
21	TMEM244	1	0	5.4	6.3	4.6	inactive
22	TAS2R40	1	-1	-4.5	-17.4	8.4	inactive
23	H4C7	1	1	9.5	21.3	-2.2	inactive
24	COX11	1	-1	-15.1	-13.3	-16.8	inactive
25	GLMP	1	0	-2.6	-11.7	6.5	inactive
26	BEND2	1	2	12.2	13.3	11.2	active
27	LOC390281	1	0	25.9	5.1	46.7	inactive
28	PLOD2	1	0	9.4	9.7	9.1	inactive
29	SRSF5	1	1	18	20.4	15.7	inactive
30	PDIK1L	1	0	-2.6	2.2	-7.5	inactive

The list goes on (5 carried over from the part before).
no.	gene symbol	reagent	two-siRNA summed score (-2 to +2)	mean protection from cisplatin (shift in death) (%)	protection from cisplatin (shift in death), siRNA C (%)	protection from cisplatin (shift in death), siRNA D (%)	outcome
26	BEND2	1	2	12.2	13.3	11.2	active
27	LOC390281	1	0	25.9	5.1	46.7	inactive
28	PLOD2	1	0	9.4	9.7	9.1	inactive
29	SRSF5	1	1	18	20.4	15.7	inactive
30	PDIK1L	1	0	-2.6	2.2	-7.5	inactive
31	ZNF436-AS1	1	0	12.3	11	13.5	inactive
32	KIAA0753	1	2	17.4	21.2	13.6	active
33	VCF1	1	0	6.4	8.3	4.6	inactive
34	LOC442030	1	0	9.1	-1.1	19.3	inactive
35	APOBEC3H	1	0	3.6	10.1	-2.9	inactive
36	FBXO22	1	0	-23.2	-21.1	-25.3	inactive
37	TMEM69	1	0	10.4	12.8	7.9	inactive
38	SSR2	1	0	10.9	-1.5	23.3	inactive
39	PLIN1	1	0	9.2	4.4	14.1	inactive
40	KCNJ16	1	0	4.5	-5.7	14.6	inactive
41	SMIM34	1	0	3.5	0.4	6.6	inactive
42	TNRC6B	1	0	4	1.7	6.3	inactive
43	LOC440197	1	0	0.7	-2.6	4	inactive
44	VAT1	1	-1	-3.6	-13.6	6.4	inactive
45	LOC440464	1	0	-5.5	-0.1	-10.8	inactive
46	SFRP5	1	-1	-16.9	-29.7	-4.1	inactive
47	ABRACL	1	0	-0.6	1.9	-3.1	inactive
48	PRSS57	1	1	16.2	3.2	29.3	inactive
49	S100A1	1	0	-10.5	-3.9	-17.2	inactive
50	ACOT6	1	0	16.8	23.6	10	inactive
51	TRAF3	1	0	0.3	-0.3	0.9	inactive
52	RTL9	1	0	-12.6	-21.5	-3.7	inactive
53	SPIN3	1	0	-0.4	7	-7.9	inactive
54	LOC440726	1	1	11.1	12.1	10.2	inactive
55	SPAAR	1	0	4	-4.6	12.6	inactive
56	ISYNA1	1	0	3	18.8	-12.8	inactive
57	ISYNA1	2	0	8.1	12.6	3.5	inactive
